# These are yes or no findings as the source states them, for the method shown. In cells and extracts the contact can be indirect. Some results given as binding are weak or reduced against the parent protein; the word gives no strength.
# Protein sequences, listed by entry. Tags and fused reporters are not part of them. Lines headed by an entry give the natural chain unless they say otherwise; changes in a name come on top. Chains listed by the source or under a name are the forms on record and can include a tag or linker.
# UniProt Q16665: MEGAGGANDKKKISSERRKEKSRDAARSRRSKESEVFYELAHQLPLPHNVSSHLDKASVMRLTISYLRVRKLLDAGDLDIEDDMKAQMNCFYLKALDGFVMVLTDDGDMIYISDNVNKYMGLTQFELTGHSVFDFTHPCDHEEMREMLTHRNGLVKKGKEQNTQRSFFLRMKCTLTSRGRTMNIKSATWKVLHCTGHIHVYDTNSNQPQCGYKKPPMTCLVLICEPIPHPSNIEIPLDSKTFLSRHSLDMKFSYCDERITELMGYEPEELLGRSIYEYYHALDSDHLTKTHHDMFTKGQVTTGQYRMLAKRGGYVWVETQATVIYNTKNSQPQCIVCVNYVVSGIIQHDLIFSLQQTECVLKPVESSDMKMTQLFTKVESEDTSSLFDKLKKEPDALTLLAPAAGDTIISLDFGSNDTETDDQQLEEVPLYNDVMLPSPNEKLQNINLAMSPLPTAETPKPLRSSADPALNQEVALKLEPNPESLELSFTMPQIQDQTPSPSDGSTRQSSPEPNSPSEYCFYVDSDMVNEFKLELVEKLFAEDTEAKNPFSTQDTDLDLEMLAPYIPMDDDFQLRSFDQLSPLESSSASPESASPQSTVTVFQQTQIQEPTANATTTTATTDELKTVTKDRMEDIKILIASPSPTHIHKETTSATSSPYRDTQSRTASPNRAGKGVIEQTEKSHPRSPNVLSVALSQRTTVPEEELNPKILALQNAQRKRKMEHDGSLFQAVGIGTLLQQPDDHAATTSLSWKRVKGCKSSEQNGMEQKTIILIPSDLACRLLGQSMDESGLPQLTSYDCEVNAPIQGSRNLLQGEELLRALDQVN
# O2-stable mutant of HIF-1α (P402/564A) (Q16665, form named): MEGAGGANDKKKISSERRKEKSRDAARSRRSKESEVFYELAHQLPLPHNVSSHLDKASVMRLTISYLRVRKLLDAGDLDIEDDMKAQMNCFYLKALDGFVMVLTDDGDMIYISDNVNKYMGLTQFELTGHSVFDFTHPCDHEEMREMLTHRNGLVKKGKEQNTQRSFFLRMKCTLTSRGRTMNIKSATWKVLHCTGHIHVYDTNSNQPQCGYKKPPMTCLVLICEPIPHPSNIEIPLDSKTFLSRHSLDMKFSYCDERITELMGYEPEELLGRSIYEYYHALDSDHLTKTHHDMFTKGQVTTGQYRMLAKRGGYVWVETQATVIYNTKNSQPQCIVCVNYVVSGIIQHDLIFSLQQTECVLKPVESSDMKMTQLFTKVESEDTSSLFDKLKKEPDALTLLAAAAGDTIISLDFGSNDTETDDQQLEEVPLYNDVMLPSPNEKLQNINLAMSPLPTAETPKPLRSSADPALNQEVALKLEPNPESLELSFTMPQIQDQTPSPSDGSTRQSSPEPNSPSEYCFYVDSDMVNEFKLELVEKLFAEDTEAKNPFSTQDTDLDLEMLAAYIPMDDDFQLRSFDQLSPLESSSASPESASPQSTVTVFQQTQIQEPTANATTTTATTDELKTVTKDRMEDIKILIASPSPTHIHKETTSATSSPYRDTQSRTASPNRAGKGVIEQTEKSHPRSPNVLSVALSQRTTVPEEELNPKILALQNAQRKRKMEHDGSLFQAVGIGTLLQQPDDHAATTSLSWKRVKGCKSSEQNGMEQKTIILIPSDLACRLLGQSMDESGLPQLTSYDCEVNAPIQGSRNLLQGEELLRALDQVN
# UniProt Q99814: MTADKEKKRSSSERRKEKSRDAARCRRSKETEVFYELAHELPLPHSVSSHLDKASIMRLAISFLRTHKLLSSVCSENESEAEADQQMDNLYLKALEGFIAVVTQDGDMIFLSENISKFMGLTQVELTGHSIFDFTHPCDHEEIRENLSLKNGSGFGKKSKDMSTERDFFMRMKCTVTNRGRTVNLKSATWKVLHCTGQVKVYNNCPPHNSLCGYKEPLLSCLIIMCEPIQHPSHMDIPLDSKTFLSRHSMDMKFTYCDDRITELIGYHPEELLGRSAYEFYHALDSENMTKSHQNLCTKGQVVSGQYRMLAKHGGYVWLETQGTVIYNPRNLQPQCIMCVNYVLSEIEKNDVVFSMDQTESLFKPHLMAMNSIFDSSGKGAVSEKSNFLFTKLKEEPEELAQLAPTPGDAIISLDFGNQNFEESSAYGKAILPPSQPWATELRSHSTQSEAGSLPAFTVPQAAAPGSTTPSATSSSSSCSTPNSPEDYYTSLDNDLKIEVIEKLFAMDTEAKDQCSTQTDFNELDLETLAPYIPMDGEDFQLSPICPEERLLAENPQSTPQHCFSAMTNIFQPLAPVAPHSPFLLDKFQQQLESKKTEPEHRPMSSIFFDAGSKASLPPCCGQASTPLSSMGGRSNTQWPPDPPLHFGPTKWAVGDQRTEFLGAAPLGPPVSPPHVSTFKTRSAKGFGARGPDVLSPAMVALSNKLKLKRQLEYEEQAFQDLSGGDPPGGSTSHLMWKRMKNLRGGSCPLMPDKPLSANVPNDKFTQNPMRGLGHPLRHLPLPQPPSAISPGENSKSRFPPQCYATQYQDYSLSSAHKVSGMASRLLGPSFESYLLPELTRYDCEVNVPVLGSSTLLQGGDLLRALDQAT
# O2-stable mutant of HIF-2α (P405/531A) (Q99814, form named): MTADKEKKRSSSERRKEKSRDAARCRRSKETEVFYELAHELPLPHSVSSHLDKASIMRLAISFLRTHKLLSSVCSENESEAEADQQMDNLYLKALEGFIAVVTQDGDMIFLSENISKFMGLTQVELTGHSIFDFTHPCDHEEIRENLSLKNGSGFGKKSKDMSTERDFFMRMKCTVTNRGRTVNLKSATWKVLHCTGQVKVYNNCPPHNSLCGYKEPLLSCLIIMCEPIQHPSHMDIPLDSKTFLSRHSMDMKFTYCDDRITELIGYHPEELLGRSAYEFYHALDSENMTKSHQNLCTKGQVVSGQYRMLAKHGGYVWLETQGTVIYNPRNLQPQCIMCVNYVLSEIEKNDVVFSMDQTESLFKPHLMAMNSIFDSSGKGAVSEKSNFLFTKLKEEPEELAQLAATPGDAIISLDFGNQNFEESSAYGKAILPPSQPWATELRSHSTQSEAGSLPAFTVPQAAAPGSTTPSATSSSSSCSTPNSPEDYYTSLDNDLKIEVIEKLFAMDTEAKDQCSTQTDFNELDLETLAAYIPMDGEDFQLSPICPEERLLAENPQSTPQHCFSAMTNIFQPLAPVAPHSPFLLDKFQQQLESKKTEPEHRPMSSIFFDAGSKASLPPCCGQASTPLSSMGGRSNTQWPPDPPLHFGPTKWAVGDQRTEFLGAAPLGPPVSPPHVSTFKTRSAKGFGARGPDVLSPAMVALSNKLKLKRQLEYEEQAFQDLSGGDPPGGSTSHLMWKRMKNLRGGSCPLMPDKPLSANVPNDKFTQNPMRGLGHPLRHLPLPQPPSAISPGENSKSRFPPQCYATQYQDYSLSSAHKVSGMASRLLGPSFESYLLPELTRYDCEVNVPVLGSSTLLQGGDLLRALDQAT
# Legend:
# Elk1 [1] = molecular target: T1, Elk1 (UniProt P19419); assay: co-IP; HEK293 or WiDr cells co-transfected with S-tagged HIF and FLAG-tagged ETS factor; lysis in 20 mM Tris-HCl pH 7.5, 137 mM NaCl, 0.5% NP-40, 0.5 mM DTT; IP with FLAG M2 agarose 1 hr at 4°C, elution with 3×FLAG peptide; western blot with anti-FLAG and anti-S-tag
# T1 sequence: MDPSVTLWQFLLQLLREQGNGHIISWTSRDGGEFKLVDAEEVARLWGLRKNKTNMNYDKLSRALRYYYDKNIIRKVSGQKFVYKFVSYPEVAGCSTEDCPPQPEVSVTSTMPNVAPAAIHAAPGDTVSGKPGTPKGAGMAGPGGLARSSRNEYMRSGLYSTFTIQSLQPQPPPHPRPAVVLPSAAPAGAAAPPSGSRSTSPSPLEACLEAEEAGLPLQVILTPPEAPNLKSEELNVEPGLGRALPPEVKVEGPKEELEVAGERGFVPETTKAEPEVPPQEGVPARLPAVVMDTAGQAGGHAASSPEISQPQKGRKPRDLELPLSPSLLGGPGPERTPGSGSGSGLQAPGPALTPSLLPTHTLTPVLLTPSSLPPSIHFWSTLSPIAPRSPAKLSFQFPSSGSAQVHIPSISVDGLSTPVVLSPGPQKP
# Elk1 [2] = molecular target: T1, Elk1; assay: co-IP; HEK293 cells under normoxia and hypoxia; IP-western blot of HIF-1α with Elk1
binding (Elk1 [1]),binding (Elk1 [2]),Substance
binds,,O2-stable mutant of HIF-1α (P402/564A) (from UniProt Q16665 1-826)
,binds,HIF-1α (from UniProt Q16665 1-826)
no binding,,O2-stable mutant of HIF-2α (P405/531A) (from UniProt Q99814 1-870)
